Test results from article PMC2848158.
These are yes or no findings as the source states them, for the method shown. A result given as binding can be weak or reduced; the word gives no strength. For part of these data: In cells and extracts the contact can be indirect.

B1: endogenous mammalian VDR obtained from nuclear extracts of immortalized rat osteoblasts (protein, UniProt P13053 1-423)
chain: MEATAASTSLPDPGDFDRNVPRICGVCGDRATGFHFNAMTCEGCKGFFRRSMKRKALFTCPFNGDCRITKDNRRHCQACRLKRCVDIGMMKEFILTDEEVQRKREMIMKRKEEEALKDSLRPKLSEEQQHIIAILLDAHHKTYDPTYADFRDFRPPVRMDGSTGSYSPRPTLSFSGNSSSSSSDLYTTSLDMMEPSGFSNLDLNGEDSDDPSVTLDLSPLSMLPHLADLVSYSIQKVIGFAKMIPGFRDLTSDDQIVLLKSSAIEVIMLRSNQSFTMDDMSWDCGSQDYKYDVTDVSKAGHTLELIEPLIKFQVGLKKLNLHEEEHVLLMAICIVSPDRPGVQDAKLVEAIQDRLSNTLQTYIRCRHPPPGSHQLYAKMIQKLADLRSLNEEHSKQYRSLSFQPENSMKLTPLVLEVFGNEIS
B2: recombinant VDR homologue from Homo sapiens (protein, UniProt P11473-1 1-427)
chain: MEAMAASTSLPDPGDFDRNVPRICGVCGDRATGFHFNAMTCEGCKGFFRRSMKRKALFTCPFNGDCRITKDNRRHCQACRLKRCVDIGMMKEFILTDEEVQRKREMILKRKEEEALKDSLRPKLSEEQQRIIAILLDAHHKTYDPTYSDFCQFRPPVRVNDGGGSHPSRPNSRHTPSFSGDSSSSCSDHCITSSDMMDSSSFSNLDLSEEDSDDPSVTLELSQLSMLPHLADLVSYSIQKVIGFAKMIPGFRDLTSEDQIVLLKSSAIEVIMLRSNESFTMDDMSWTCGNQDYKYRVSDVTKAGHSLELIEPLIKFQVGLKKLNLHEEEHVLLMAICIVSPDRPGVQDAALIEAIQDRLSNTLQTYIRCRHPPPGSHLLYAKMIQKLADLRSLNEEHSKQYRCLSFQPECSMKLTPLVLEVFGNEIS
B3: recombinant form of the Danio rerio VDR homologue (protein, UniProt Q9PTN2 1-453)
chain: MLTENSAVNSGGKSKCEAGACESRVNGDATSVMDLMAVSTSATGQDEFDRNAPRICGVCGDKATGFHFNAMTCEGCKGFFRRSMKRKASFTCPFNGNCTITKDNRRHCQACRLKRCIDIGMMKEFILTDEEVQRKKDLIMKRKEEEAAREARKPRLSDEQMQIINSLVEAHHKTYDDSYSDFVRFRPPVREGPVTRSASRAASLHSLSDASSDSFNHSPESVDTKLNFSNLLMMYQDSGSPDSSEEDQQSRLSMLPHLADLVSYSIQKVIGFAKMIPGFRDLTAEDQIALLKSSAIEIIMLRSNQSFSLEDMSWSCGGPDFKYCINDVTKAGHTLELLEPLVKFQVGLKKLKLHEEEHVLLMAICLLSPDRPGVQDHVRIEALQDRLCDVLQAYIRIQHPGGRLLYAKMIQKLADLRSLNEEHSKQYRSLSFQPEHSMQLTPLVLEVFGSEVS

Tests used:
[1] = target: GST fusion form of the Danio rerio Runx2b orthologue (Danio rerio); experiment: pull-down; GST-Runx fusion proteins (1.5 μg) bound to 20 μl glutathione-Sepharose beads, incubated with nuclear extracts (150 μg) of ROS 17/2.8 cells cultured with 10^-8 M 1α,25-dihydroxyvitamin D3 for 18 h; VDR detected by Western blot; only the target purified
[2] = target: GST fusion form of the Danio rerio Runx2b orthologue (Danio rerio); experiment: pull-down; GST-Runx2 fusion proteins on glutathione-Sepharose, incubated with pure recombinant VDR (1.5 μg) for 2 h at 4°C in 20 mM Tris pH 8.0, 100 mM KCl, 0.5% NP-40, 10 mM EDTA, 0.05 mM PMSF, 1 mM DTT, 0.5% non-fat milk; four washes; Western blot (anti-VDR or anti-Myc); both purified

Row | Binder | binding [1] | binding [2]
1 | B1 | binds | –
2 | B2 | – | binds weakly
3 | B3 | – | binds
